Source: paper PMC7018101
No constants are given. Whether binding was seen depends on the method and setting. For some of these results: In cells and extracts the contact can be indirect. Some results given as binding are weak or reduced against the parent protein; the word gives no strength. Sequences can lack the tags named with a protein. Blank lines part the entries; values can stand above or below the binder they belong to.

Assays:
Red1-YFP (S. pombe) = target: T1, Red1-YFP (S. pombe) (UniProt Q9UTR8); test: co-IP; native extracts of S. pombe cells expressing Red1-YFP or Red1(Δ196–245)-YFP; anti-GFP magnetic beads; blot with anti-Mmi1
T1 sequence: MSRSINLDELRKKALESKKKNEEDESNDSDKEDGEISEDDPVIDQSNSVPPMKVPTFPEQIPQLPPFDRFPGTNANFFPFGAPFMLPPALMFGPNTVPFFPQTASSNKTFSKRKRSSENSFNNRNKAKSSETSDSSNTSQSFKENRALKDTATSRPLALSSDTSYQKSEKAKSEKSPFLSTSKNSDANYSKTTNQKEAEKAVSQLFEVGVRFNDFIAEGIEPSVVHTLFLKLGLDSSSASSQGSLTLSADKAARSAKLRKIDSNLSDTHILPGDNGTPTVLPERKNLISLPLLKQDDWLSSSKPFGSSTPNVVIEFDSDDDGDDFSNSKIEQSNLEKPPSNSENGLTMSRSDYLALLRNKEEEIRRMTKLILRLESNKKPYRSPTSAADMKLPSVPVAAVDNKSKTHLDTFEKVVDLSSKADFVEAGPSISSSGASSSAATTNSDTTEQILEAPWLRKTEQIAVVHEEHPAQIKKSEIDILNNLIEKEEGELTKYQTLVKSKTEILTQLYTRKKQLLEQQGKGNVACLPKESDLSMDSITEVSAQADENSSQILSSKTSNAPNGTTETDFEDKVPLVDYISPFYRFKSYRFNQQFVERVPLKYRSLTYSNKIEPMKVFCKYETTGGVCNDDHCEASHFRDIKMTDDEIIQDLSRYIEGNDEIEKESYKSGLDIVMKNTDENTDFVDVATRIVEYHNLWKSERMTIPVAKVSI

[1] = target: T2, Red1(Δ196–245)-YFP (S. pombe) (UniProt Q9UTR8); test: as above
T2 sequence: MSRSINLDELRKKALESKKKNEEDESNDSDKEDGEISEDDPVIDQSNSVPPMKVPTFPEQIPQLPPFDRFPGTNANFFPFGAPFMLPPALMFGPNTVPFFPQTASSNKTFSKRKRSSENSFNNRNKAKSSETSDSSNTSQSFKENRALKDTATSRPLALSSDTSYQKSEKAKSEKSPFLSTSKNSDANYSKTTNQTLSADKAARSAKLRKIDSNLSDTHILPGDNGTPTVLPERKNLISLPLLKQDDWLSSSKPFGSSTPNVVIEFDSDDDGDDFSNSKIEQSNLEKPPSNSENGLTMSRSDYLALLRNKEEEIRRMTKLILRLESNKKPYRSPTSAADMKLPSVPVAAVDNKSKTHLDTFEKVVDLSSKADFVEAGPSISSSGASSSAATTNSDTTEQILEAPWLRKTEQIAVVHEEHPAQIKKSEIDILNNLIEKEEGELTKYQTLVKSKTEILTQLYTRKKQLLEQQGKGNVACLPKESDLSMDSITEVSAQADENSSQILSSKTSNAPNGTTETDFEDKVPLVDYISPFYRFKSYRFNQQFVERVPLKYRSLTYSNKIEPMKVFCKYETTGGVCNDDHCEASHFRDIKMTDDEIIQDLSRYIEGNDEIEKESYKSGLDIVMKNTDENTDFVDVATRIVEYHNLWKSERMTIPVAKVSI

Rrp6-FLAG (S. pombe) [2] = target: T3, Rrp6-FLAG (S. pombe) (UniProt Q10146); test: pull-down; in vitro binding assay: purified Rrp6-FLAG incubated with purified GST-YFP-Mmi1 and control reticulocyte lysate or lysate expressing Red1-3HA; room temperature 30 min in 20 mM HEPES pH 7.5, 150 mM NaCl, 5 mM MgCl2, 1 mM DTT, 0.5% Triton-X100, 5% glycerol; anti-FLAG (DDDDK) magnetic beads; washed with 300 mM NaCl, 1% Triton-X100; both purified
T3 sequence: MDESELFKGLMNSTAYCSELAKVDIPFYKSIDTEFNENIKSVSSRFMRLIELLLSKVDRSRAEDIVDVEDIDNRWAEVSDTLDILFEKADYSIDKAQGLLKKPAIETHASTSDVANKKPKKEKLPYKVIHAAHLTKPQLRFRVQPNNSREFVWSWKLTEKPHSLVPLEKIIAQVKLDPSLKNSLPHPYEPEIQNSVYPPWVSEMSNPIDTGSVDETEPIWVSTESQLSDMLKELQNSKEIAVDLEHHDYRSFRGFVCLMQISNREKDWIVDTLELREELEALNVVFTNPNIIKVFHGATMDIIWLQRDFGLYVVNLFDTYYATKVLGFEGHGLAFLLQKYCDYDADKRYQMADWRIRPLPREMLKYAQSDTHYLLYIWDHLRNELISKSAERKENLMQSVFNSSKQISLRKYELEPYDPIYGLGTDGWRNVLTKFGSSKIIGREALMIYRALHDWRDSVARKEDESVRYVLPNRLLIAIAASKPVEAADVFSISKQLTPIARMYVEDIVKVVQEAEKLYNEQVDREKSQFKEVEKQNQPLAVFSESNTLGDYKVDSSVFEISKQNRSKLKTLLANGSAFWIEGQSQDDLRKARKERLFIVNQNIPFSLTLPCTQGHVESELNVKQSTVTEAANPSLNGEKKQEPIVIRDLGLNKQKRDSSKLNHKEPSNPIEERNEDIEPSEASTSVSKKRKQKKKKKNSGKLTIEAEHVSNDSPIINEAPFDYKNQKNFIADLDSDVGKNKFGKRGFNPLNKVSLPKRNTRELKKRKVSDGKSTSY

Rrp6-FLAG (S. pombe) [3] = target: T3, Rrp6-FLAG (S. pombe); test: pull-down; in vitro binding assay: purified Rrp6-FLAG incubated with reticulocyte lysate expressing Red1-3HA (purified GST-YFP-Mmi1 also present); same buffers as a5; anti-FLAG (DDDDK) magnetic beads; blot with anti-HA; only the target purified

binding (Red1-YFP (S. pombe)): binds
binding [1]: binds
B1: Mmi1 (endogenous) (protein, UniProt O74958 1-488)
chain: MSNTNFSTSRSSKSIPELPNLEALRSLWPPPSLNESGDTRSVWTTHTGEPVASSVLSTSGSNNFSSPLKRPAPESHDAPIGRRLMVDDPRLIKHGKYDFSRHCTDYGHSYEWPYFRSLRRESMLYHTSGSYPESQPPYSSYSTDAPHYYHAGSESSAYYDSRSRLHGIQPPPKRRTLSPPPRRLADPVVVGSSRYVEEEVYRRPPYTLASEVPSSASAYQAGYSSYPVRSSPQLSHEDTRHGIASSGSTRYPFVPANTRASHSPSLLEPYAHSLPSSVAPVGAYPEKSSYLLSNSSNDSASRKEKPKARASTPPPLNFSRASEHRNEKGERISMINPRVVLDENGISHRSRYFIMLCDNETAIAHAKKTSIWAVKKDSSKRISDAYKKASVYFIFVAQQTYNALGYAQVVSDLNSTELPFWSDSSHAGGVRIKWIKTCNLFSAEISEIVSHMDHGSEARDGMEMMYDEGSRLCTLINYAIMKRIGRDR

binding (Rrp6-FLAG (S. pombe) [2]): binds weakly
B2: GST-YFP-Mmi1 (protein, UniProt O74958 1-488)
chain: B1 chain

binding (Rrp6-FLAG (S. pombe) [3]): binds
B3: Red1-3HA (protein, UniProt Q9UTR8 1-712)
chain: T1 sequence
